{"source": "PubChem BioAssay AID256", "about": "(DTP/NCI, 2004)", "test_system": "CD2F1 mice, L1210 leukemia ip, survival T/C", "experiment": "NCI In Vivo Anticancer Drug Screen. Data for tumor model L1210 Leukemia (intraperitoneal) in CD2F1 (CDF1) mice", "settings": "T/C endpoint: mean survival time, higher T/C = longer survival", "method_in_brief": "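Each value reflects a quotient of treated over vehicle control outcomes in mice with a transplanted tumor.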", "note": "The list does not hold the whole screen: it gathers some chemical classes. Other doses and runs of a compound may be missing. T/C: endpoint of the treated group in % of that of the vehicle group. Some doses have a count of surviving animals in place of a T/C: the source files T/C as zero there, which appears to mark a toxic dose or a test without result, not a measured value. Some survivor counts are full or nearly so, which does not show that the dose was tolerated: survival well below the control is almost never listed, so the zero probably covers shortened survival too. Survivors were counted at the toxicity check, usually on the fifth day, unless a day is given; later deaths do not show. Schedule codes are those of the source, read here as Q, the interval in days (D) or hours (H), X, the number of doses. Some complexes appear as separate parts, the way the source draws them; their charges need not add up. For survival time, the PubChem record calls one and a half times the control and up active, and a quarter to a half above the control has no call in these data; cut-offs in other NCI protocols can differ. Some entries show no survivor count and are marked so; the dose need not have been tolerated. Some T/C values carry the count of animals alive at the toxicity check (mostly the fifth day); where neither a count nor a note follows, no animal had died by that day. Some doses were run more than once; the values are given in rising order."}
{"compound": "NC(=Nc1ccccc1)C(N)=Nc1ccccc1.O=[N+]([O-])c1cc([N+](=O)[O-])c(O)c([N+](=O)[O-])c1", "values": [{"measurement": "T/C", "setting": "dose: 25.0 mg/kg/injection, schedule: Q04DX002 (ip), vehicle: saline with Tween-80", "value": "96 % of control"}, {"measurement": "T/C", "setting": "dose: 50.0 mg/kg/injection, schedule: Q04DX002 (ip), vehicle: saline with Tween-80", "value": "88 % of control"}, {"measurement": "T/C", "setting": "dose: 100.0 mg/kg/injection, schedule: Q04DX002 (ip), vehicle: saline with Tween-80", "value": "100 % of control"}, {"measurement": "T/C", "setting": "dose: 200.0 mg/kg/injection, schedule: Q04DX002 (ip), vehicle: saline with Tween-80", "value": "96 % of control"}]}
{"compound": "[C-]#N.[C-]#N.[C-]#N.[C-]#N.[Ni].c1ccc([I+]c2ccccc2)cc1", "values": [{"measurement": "survivor count", "setting": "dose: 100.0 mg/kg/injection, schedule: Q01DX001 (ip), vehicle: saline", "value": "2 of 6"}, {"measurement": "survivor count", "setting": "dose: 200.0 mg/kg/injection, schedule: Q01DX001 (ip), vehicle: saline", "value": "0 of 6"}, {"measurement": "survivor count", "setting": "dose: 400.0 mg/kg/injection, schedule: Q01DX001 (ip), vehicle: saline", "value": "0 of 6"}]}
{"compound": "CC(=O)NCC1CCOP(=O)(N(CCCl)CCCl)O1", "note": "(centres undefined)", "values": [{"measurement": "T/C", "setting": "dose: 15.62 mg/kg/injection, schedule: Q01DX001 (ip), vehicle: DMSO", "value": "103 % of control"}, {"measurement": "T/C", "setting": "dose: 31.25 mg/kg/injection, schedule: Q01DX001 (ip), vehicle: DMSO", "value": "101 % of control"}, {"measurement": "T/C", "setting": "dose: 62.5 mg/kg/injection, schedule: Q01DX001 (ip), vehicle: DMSO", "value": "104 % of control"}, {"measurement": "T/C", "setting": "dose: 125.0 mg/kg/injection, schedule: Q01DX001 (ip), vehicle: DMSO", "value": "114 % of control"}, {"measurement": "T/C", "setting": "dose: 250.0 mg/kg/injection, schedule: Q01DX001 (ip), vehicle: DMSO", "value": "110 % of control"}, {"measurement": "T/C", "setting": "dose: 500.0 mg/kg/injection, schedule: Q01DX001 (ip), vehicle: DMSO", "value": "135 % of control"}]}
{"compound": "CCCCNCCCN.O=[N+]([O-])c1cc([N+](=O)[O-])c(O)c([N+](=O)[O-])c1", "values": [{"measurement": "T/C", "setting": "dose: 100.0 mg/kg/injection, schedule: Q01DX001 (ip), vehicle: carboxymethylcellulose (CMC)", "value": "88 % of control [survivor count not shown]"}]}
{"compound": "CCN(CC)CCOC(=O)C(O)(c1ccc(C(C)C)cc1)c1ccc(C(C)C)cc1", "values": [{"measurement": "T/C", "setting": "dose: 75.0 mg/kg/injection, schedule: Q01DX001 (ip), vehicle: saline", "value": "93 % of control"}, {"measurement": "T/C", "setting": "dose: 150.0 mg/kg/injection, schedule: Q01DX001 (ip), vehicle: saline", "value": "93 % of control"}]}
{"compound": "O=P1(N(CCCl)CCCl)NCCC(C(F)(F)F)O1", "note": "(centres undefined)", "values": [{"measurement": "T/C", "setting": "dose: 7.8 mg/kg/injection, schedule: Q01DX001 (ip), vehicle: Klucel (hydroxypropylcellulose) (HPC)", "value": "108 % of control"}, {"measurement": "T/C", "setting": "dose: 7.8 mg/kg/injection, schedule: Q01DX005 (ip), vehicle: Klucel (hydroxypropylcellulose) (HPC)", "value": "117 % of control"}, {"measurement": "T/C", "setting": "dose: 15.6 mg/kg/injection, schedule: Q01DX001 (ip), vehicle: Klucel (hydroxypropylcellulose) (HPC)", "value": "119 % of control"}, {"measurement": "T/C", "setting": "dose: 15.6 mg/kg/injection, schedule: Q01DX005 (ip), vehicle: Klucel (hydroxypropylcellulose) (HPC)", "value": "128 % of control"}, {"measurement": "T/C", "setting": "dose: 31.3 mg/kg/injection, schedule: Q01DX001 (ip), vehicle: Klucel (hydroxypropylcellulose) (HPC)", "value": "119 % of control"}, {"measurement": "T/C", "setting": "dose: 31.3 mg/kg/injection, schedule: Q01DX005 (ip), vehicle: Klucel (hydroxypropylcellulose) (HPC)", "value": "169 % of control"}, {"measurement": "T/C", "setting": "dose: 62.5 mg/kg/injection, schedule: Q01DX001 (ip), vehicle: Klucel (hydroxypropylcellulose) (HPC)", "value": "133 % of control"}, {"measurement": "T/C", "setting": "dose: 62.5 mg/kg/injection, schedule: Q01DX005 (ip), vehicle: Klucel (hydroxypropylcellulose) (HPC)", "value": "189 % of control"}, {"measurement": "T/C", "setting": "dose: 125.0 mg/kg/injection, schedule: Q01DX001 (ip), vehicle: Klucel (hydroxypropylcellulose) (HPC)", "value": "126 [4 of 6 alive] and 165 % of control"}, {"measurement": "survivor count", "setting": "dose: 125.0 mg/kg/injection, schedule: Q01DX005 (ip), vehicle: Klucel (hydroxypropylcellulose) (HPC)", "value": "6 of 6"}, {"measurement": "survivor count", "setting": "dose: 250.0 mg/kg/injection, schedule: Q01DX001 (ip), vehicle: Klucel (hydroxypropylcellulose) (HPC)", "value": "3 of 6"}, {"measurement": "survivor count", "setting": "dose: 500.0 mg/kg/injection, schedule: Q01DX001 (ip), vehicle: Klucel (hydroxypropylcellulose) (HPC)", "value": "1 of 6"}, {"measurement": "survivor count", "setting": "dose: 1000.0 mg/kg/injection, schedule: Q01DX001 (ip), vehicle: Klucel (hydroxypropylcellulose) (HPC)", "value": "0 of 6"}]}
